Source: patent US20030199671A1 (priority 2001, published 2003)
Positions of bridges follow the written chain, without caps; N, C: chain ends.

Legend:
[1] = general procedure: Fmoc solid-phase peptide synthesis; details: whole synthesis, one disulfide bridge, sequence written open
[2] = Fmoc solid-phase peptide synthesis; details: whole synthesis

| Substance | difficulty met [1] | difficulty met [2] |
| --- | --- | --- |
| Ac-GDRRACSRDWSGALVWCAGHEPGPEGGGK-NH2 (N-acetyl, C-amide; Fc region binding polypeptide) | is also difficult, primarily due to the N-terminal Arg-Arg positions giving the possibility of deletion sequences |  |
| Ac-GDDHMCVYTTWGELIWCDNHEPGPEGGGK-NH2 (disulfide 6-17; SMILES CC[C@H](C)[C@@H]1NC(=O)[C@H](CC(C)C)NC(=O)[C@H](CCC(=O)O)NC(=O)CNC(=O)[C@H](Cc2c[nH]c3ccccc23)NC(=O)[C@H]([C@@H](C)O)NC(=O)[C@H]([C@@H](C)O)NC(=O)[C@H](Cc2ccc(O)cc2)NC(=O)[C@H](C(C)C)NC(=O)[C@@H](NC(=O)[C@H](CCSC)NC(=O)[C@H](Cc2c[nH]cn2)NC(=O)[C@H](CC(=O)O)NC(=O)[C@H](CC(=O)O)NC(=O)CNC(C)=O)CSSC[C@@H](C(=O)N[C@@H](CC(=O)O)C(=O)N[C@@H](CC(N)=O)C(=O)N[C@@H](Cc2c[nH]cn2)C(=O)N[C@@H](CCC(=O)O)C(=O)N2CCC[C@H]2C(=O)NCC(=O)N2CCC[C@H]2C(=O)N[C@@H](CCC(=O)O)C(=O)NCC(=O)NCC(=O)NCC(=O)N[C@@H](CCCCN)C(N)=O)NC(=O)[C@H](Cc2c[nH]c3ccccc23)NC1=O) |  | synthesis and folding are problematic, primarily due to beta rearrangement at the Asp-Asp-His position |
